The assay has as its target T1, recombinant LAIR-1 ectodomain (human) (UniProt Q6GTX8).
T1 sequence: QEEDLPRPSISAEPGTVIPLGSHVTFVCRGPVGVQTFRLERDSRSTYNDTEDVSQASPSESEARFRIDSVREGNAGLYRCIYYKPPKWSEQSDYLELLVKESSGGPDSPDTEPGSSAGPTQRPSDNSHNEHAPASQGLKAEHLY
The assay is described as follows: affinity purification with mass spectrometry.

By UniProt entry, the sequences of proteins in these tests, tags left out. Where a name states a change or a piece, a line headed by the entry shows the natural chain unless it says otherwise.
UniProt P02458: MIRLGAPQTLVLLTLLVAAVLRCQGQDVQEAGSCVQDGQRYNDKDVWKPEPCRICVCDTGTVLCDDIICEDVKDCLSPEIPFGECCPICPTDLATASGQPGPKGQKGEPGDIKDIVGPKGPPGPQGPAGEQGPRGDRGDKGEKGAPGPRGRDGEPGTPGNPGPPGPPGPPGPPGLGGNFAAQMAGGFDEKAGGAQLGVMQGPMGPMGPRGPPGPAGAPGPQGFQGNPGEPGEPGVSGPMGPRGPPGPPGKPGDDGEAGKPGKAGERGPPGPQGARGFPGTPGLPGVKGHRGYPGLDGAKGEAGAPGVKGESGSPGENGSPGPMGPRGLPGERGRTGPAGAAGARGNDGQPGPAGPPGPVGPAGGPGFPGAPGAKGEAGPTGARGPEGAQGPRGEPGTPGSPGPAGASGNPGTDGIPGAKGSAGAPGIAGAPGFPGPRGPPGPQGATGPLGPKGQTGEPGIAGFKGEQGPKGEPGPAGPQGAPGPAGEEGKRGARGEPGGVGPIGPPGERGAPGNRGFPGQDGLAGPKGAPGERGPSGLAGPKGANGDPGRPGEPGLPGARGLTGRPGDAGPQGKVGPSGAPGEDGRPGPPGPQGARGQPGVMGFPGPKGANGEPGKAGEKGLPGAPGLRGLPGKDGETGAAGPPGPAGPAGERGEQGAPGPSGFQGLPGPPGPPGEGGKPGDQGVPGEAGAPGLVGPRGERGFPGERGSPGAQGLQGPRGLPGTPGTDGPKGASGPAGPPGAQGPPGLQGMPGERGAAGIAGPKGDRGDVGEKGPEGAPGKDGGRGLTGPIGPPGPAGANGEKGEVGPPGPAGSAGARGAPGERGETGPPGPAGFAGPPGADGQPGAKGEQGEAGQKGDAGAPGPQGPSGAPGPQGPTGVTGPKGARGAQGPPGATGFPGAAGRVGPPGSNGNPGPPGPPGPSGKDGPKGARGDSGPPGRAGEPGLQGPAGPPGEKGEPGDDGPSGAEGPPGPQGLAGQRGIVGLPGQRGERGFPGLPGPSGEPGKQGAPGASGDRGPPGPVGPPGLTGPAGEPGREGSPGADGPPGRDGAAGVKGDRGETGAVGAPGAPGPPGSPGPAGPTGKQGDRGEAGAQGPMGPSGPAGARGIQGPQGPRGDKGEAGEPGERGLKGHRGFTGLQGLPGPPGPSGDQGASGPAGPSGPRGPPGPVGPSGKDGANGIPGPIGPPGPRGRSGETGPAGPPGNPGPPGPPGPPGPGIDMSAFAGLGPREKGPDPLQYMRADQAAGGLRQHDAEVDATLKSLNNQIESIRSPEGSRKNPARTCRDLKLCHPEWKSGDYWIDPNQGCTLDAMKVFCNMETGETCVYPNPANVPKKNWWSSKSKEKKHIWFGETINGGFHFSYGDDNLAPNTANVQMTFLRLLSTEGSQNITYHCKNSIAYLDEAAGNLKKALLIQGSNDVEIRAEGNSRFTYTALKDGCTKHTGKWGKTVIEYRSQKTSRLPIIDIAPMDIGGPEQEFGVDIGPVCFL

Results are given in words; binding and its absence hold for the method and conditions named. Binding seen in cells or lysates may run through a third protein. These calls come from enrichment with a bait or labelling near it, and not all partners need be listed.

With Human collagen II (from UniProt P02458), the binding entry is reported as “binds”.

The values above are taken from publication doi:10.1101/2021.05.14.444196.
